Data: the supplement of paper PMC10331698
± gives the standard deviation of the averaged measurements. Most entries show no effect beyond the scatter of the controls.

How the values were obtained:
Assay in all cases: level (log10 ratio to DMSO vehicle control); higher = higher biomarker level / cell amount than vehicle control
[1] = compound: OCCC(F)(F)C(F)(F)C(F)(F)C(F)(F)C(F)(F)C(F)(F)C(F)(F)C(F)(F)F [8:2 Fluorotelomer alcohol]; settings: 2200 nM; in DMSO
Experimental: (§1)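 BioMAP Diversity Plus panel of 12 human primary cell co-culture systems (3C, 4H, LPS, SAg, BT, BF4T, BE3C, CASM3C, HDF3CGF, KF3CT, MyoF, Mphg). Compounds were added 1 h before stimulation and left for 24 h (MyoF 48 h; BT 72 h for soluble read-outs or 6 d for IgG). Biomarkers were read by ELISA, cytotoxicity by SRB, PBMC viability and proliferation by Alamar Blue. Each well value was divided by the mean of 8 DMSO control wells on the same plate and log10 transformed; duplicate blinded samples were tested at 4 concentrations.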

[2] = compound: OCC(F)(F)C(F)(F)C(F)(F)C(F)(F)C(F)(F)C(F)(F)C(F)(F)C(F)(F)C(F)(F)C(F)(F)C(F)(F)F [11:1 Fluorotelomer alcohol]; settings: in DMSO
Experimental: as §1

[3] = compound: C=C(C)C(=O)OCC(F)(F)C(F)(F)C(F)(F)F [2,2,3,3,4,4,4-Heptafluorobutyl methacrylate]; settings: 2200 nM; in DMSO
Experimental: as §1

Perfluorooctanamide = compound: NC(=O)C(F)(F)C(F)(F)C(F)(F)C(F)(F)C(F)(F)C(F)(F)C(F)(F)F [Perfluorooctanamide]; settings: 2200 nM; in DMSO
Experimental: as §1

[4] = compound: O=C(O)C(F)(F)OC(F)(F)C(F)(F)OC(F)(F)C(F)(F)C(F)(F)C(F)(F)F [Perfluoro-3,6-dioxadecanoic acid]; settings: 2200 nM; in DMSO
Experimental: as §1

[5] = compound: C=CC(=O)OCC(F)(F)C(F)(F)C(F)(F)C(F)(F)COC(=O)C=C [1H,1H,6H,6H-Perfluorohexane-1,6-diol diacrylate]; settings: 2200 nM; in DMSO
Experimental: as §1

[6] = compound: FC(F)(F)C(F)(F)C(F)(F)C(F)(F)C(F)(F)C(F)(F)C(F)(F)CCI [1-Iodo-1H,1H,2H,2H-perfluorononane]; settings: in DMSO
Experimental: as §1

[7] = compound: O=P(O)(O)CCC(F)(F)C(F)(F)C(F)(F)C(F)(F)C(F)(F)C(F)(F)C(F)(F)C(F)(F)F [((Perfluorooctyl)ethyl)phosphonic acid]; settings: 2200 nM; in DMSO
Experimental: as §1

[8] = compound: O=C(O)C(F)(F)C(F)(F)C(F)(F)C(F)(F)C(F)(F)C(F)(F)C(F)(F)C(F)F [9-H-Perfluorononanoic acid]; settings: 2200 nM; in DMSO
Experimental: as §1

[9] = compound: O=C(O)C(F)(F)C(F)(F)OC(F)(F)F [Perfluoro-3-methoxypropanoic acid]; settings: 2200 nM; in DMSO
Experimental: as §1

[10] = compound: FC(F)C(F)(F)COCC1CO1 [((2,2,3,3-Tetrafluoropropoxy)methyl)oxirane]; settings: 2200 nM; in DMSO
Experimental: as §1

[11] = compound: FC(F)(F)C(F)(F)C(F)(F)C(F)(F)C(F)(F)C(F)(F)C(F)(F)I [1-Iodopentadecafluoroheptane]; settings: in DMSO
Experimental: as §1

[12] = compound: O=S(=O)(Cl)C(F)(F)C(F)(F)C(F)(F)C(F)(F)C(F)(F)C(F)(F)C(F)(F)C(F)(F)F [Perfluoro-1-octanesulfonyl chloride]; settings: 2200 nM; in DMSO
Experimental: as §1

Perfluoroundecanoic acid = compound: O=C(O)C(F)(F)C(F)(F)C(F)(F)C(F)(F)C(F)(F)C(F)(F)C(F)(F)C(F)(F)C(F)(F)C(F)(F)F [Perfluoroundecanoic acid]; settings: in DMSO
Experimental: as §1

[13] = compound: O=C(O)C(F)(F)OC(F)(F)C(F)(F)OC(F)(F)C(=O)O [Perfluoro-3,6-dioxaoctane-1,8-dioic acid]; settings: 2200 nM; in DMSO
Experimental: as §1

Perfluorobutanoic acid = compound: O=C(O)C(F)(F)C(F)(F)C(F)(F)F [Perfluorobutanoic acid]; settings: 2200 nM; in DMSO
Experimental: as §1

Perfluoropropanoic acid = compound: O=C(O)C(F)(F)C(F)(F)F [Perfluoropropanoic acid]; settings: 2200 nM; in DMSO
Experimental: as §1

[14] = compound: O=C(O)C=CC(F)(C(F)(F)F)C(F)(F)F [3-(Perfluoroisopropyl)-2-propenoic acid]; settings: in DMSO
Experimental: as §1

Row | Test System | level (log10) [1] | level (log10) ([2]; 370 nM) | level (log10) ([2]; 1100 nM) | level (log10) ([2]; 3300 nM) | level (log10) ([2]; 10000 nM) | level (log10) [3] | level (log10) (Perfluorooctanamide) | level (log10) [4] | level (log10) [5] | level (log10) ([6]; 740 nM) | level (log10) ([6]; 2200 nM) | level (log10) ([6]; 6700 nM) | level (log10) ([6]; 20000 nM) | level (log10) [7] | level (log10) [8] | level (log10) [9] | level (log10) [10] | level (log10) ([11]; 740 nM) | level (log10) ([11]; 2200 nM) | level (log10) ([11]; 6700 nM) | level (log10) ([11]; 20000 nM) | level (log10) [12] | level (log10) (Perfluoroundecanoic acid; 740 nM) | level (log10) (Perfluoroundecanoic acid; 2200 nM) | level (log10) [13] | level (log10) (Perfluorobutanoic acid) | level (log10) (Perfluoropropanoic acid) | level (log10) ([14]; 2200 nM) | level (log10) ([14]; 6700 nM) | level (log10) ([14]; 20000 nM) | level (log10) ([14]; 60000 nM)
1 | 4H:CD62P/P-selectin | -0.014 ± 0.0085 | -0.031 ± 0.0042 | -0.111 ± 0.042 | -0.095 ± 0.079 | -0.139 ± 0.13 | 0.074 ± 0.0099 | -0.0295 ± 0.043 | 0.0095 ± 0.071 | -0.0145 ± 0.0035 | 0.019 | 0.017 ± 0.013 | 0.0005 ± 0.037 | -0.0185 ± 0.06 | -0.0275 ± 0.0035 | 0.047 ± 0.079 | -0.008 ± 0.018 | -0.0025 ± 0.047 | -0.018 ± 0.018 | 0.038 ± 0.065 | 0.0125 ± 0.021 | 0.0035 ± 0.022 | 0.012 ± 0.0057 | 0 ± 0.033 | 0.014 ± 0.035 | 0.013 ± 0.0042 | 0.0225 ± 0.044 | -0.0405 ± 0.023 | -0.0155 ± 0.0078 | -0.001 ± 0.02 | -0.0105 ± 0.012 | 0.023 ± 0.0085
2 | 4H:CD87/uPAR | -0.047 ± 0.041 | -0.008 ± 0.0057 | -0.0285 ± 0.037 | -0.0415 ± 0.028 | 0 ± 0.059 | 0.014 ± 0.083 | 0.0295 ± 0.073 | -0.009 ± 0.0042 | -0.0035 ± 0.033 | 0.034 ± 0.0042 | 0.0295 ± 0.00071 | 0.0135 ± 0.00071 | 0.0025 ± 0.026 | 0.042 ± 0.055 | 0.0095 ± 0.011 | -0.0255 ± 0.016 | -0.022 ± 0.04 | 0.026 ± 0.057 | -0.0025 ± 0.049 | -0.013 ± 0.023 | 0.0035 ± 0.012 | -0.023 ± 0.054 | 0.017 ± 0.018 | -0.0025 ± 0.011 | 0.011 ± 0.0028 | -0.014 ± 0.051 | -0.0095 ± 0.00071 | 0.0575 ± 0.074 | 0.034 ± 0.016 | 0.055 ± 0.054 | 0.105 ± 0.027
3 | 4H:CD106/VCAM-1 | 0.008 ± 0.018 | 0.02 ± 0.021 | 0.0285 ± 0.022 | 0.0115 ± 0.057 | 0.024 ± 0.038 | 0.0165 ± 0.073 | -0.0035 ± 0.0021 | 0.007 ± 0.035 | -0.0105 ± 0.011 | 0.015 ± 0.045 | 0.011 | -0.003 ± 0.027 | -0.0585 ± 0.083 | 0.0035 ± 0.018 | 0.0395 ± 0.081 | 0.001 ± 0.014 | -0.007 ± 0.0099 | -0.014 ± 0.016 | -0.009 ± 0.0028 | -0.018 ± 0.0042 | -0.0005 ± 0.0035 | 0.003 ± 0.031 | -0.004 ± 0.0042 | -0.02 ± 0.021 | 0.013 ± 0.021 | -0.0185 ± 0.013 | -0.0035 ± 0.018 | 0.0205 ± 0.015 | 0.0275 ± 0.011 | -0.0175 ± 0.019 | 0.016 ± 0.0014
4 | 4H:SRB | -0.018 ± 0.0014 | 0.0045 ± 0.013 | -0.0105 ± 0.0092 | -0.0195 ± 0.0035 | -0.0005 ± 0.025 | 0.0015 ± 0.019 | 0.0005 ± 0.013 | -0.0175 ± 0.011 | 0.009 ± 0.0042 | 0.018 ± 0.024 | 0.0115 ± 0.0078 | 0.0165 ± 0.0092 | 0.024 ± 0.024 | -0.0235 ± 0.0064 | 0.016 ± 0.0071 | -0.0035 ± 0.013 | 0.0015 ± 0.015 | 0.0065 ± 0.011 | 0.005 ± 0.0057 | 0.0015 ± 0.0092 | 0.0125 ± 0.005 | 0.0005 ± 0.00071 | 0.0035 ± 0.0078 | 0 ± 0.0042 | -0.004 ± 0.011 | -0.019 ± 0.013 | 0.004 ± 0.0057 | -0.001 ± 0.0028 | 0.001 ± 0.018 | -0.0045 ± 0.029 | 0.004 ± 0.021
5 | 4H:VEGFR2 | 0.013 ± 0.033 | 0.006 ± 0.027 | -0.027 ± 0.023 | -0.0135 ± 0.033 | -0.008 ± 0.048 | 0.0195 ± 0.067 | 0.003 ± 0.027 | 0.0075 ± 0.05 | 0.012 ± 0.024 | 0.038 ± 0.021 | 0.0015 ± 0.0064 | -0.0015 ± 0.026 | 0.0225 ± 0.06 | -0.014 ± 0.014 | 0.036 ± 0.045 | -0.0545 ± 0.029 | 0.03 ± 0.04 | -0.0015 ± 0.023 | 0.002 ± 0.021 | 0.0055 ± 0.0092 | 0.06 ± 0.024 | 0.008 ± 0.045 | -0.029 ± 0.03 | -0.021 ± 0.014 | -0.0285 ± 0.059 | 0.002 ± 0.014 | 0.0145 ± 0.042 | 0.0005 ± 0.022 | -0.0145 ± 0.019 | 0.004 ± 0.05 | 0.01 ± 0.045
6 | BE3C:CD54/ICAM-1 | 0.019 ± 0.038 | -0.0185 ± 0.0035 | -0.0245 ± 0.00071 | -0.054 ± 0.0099 | -0.025 ± 0.0028 | 0.011 ± 0.031 | 0.0005 ± 0.013 | 0.009 ± 0.0071 | 0.002 ± 0.0085 | 0.004 | -0.0035 ± 0.015 | 0.0115 ± 0.005 | -0.009 ± 0.016 | 0 ± 0.0085 | -0.025 ± 0.0099 | 0.0105 ± 0.0064 | -0.0025 ± 0.00071 | -0.0045 ± 0.0064 | -0.006 ± 0.016 | -0.0125 ± 0.026 | 0.006 ± 0.013 | 0.004 ± 0.025 | -0.0145 ± 0.019 | -0.0105 ± 0.037 | 0.0165 ± 0.0078 | -0.0225 ± 0.021 | 0.012 ± 0.0057 | -0.006 ± 0.035 | 0.002 ± 0.0057 | -0.005 | 0.004 ± 0.0071
7 | BE3C:CD87/uPAR | -0.0205 ± 0.025 | 0.0095 ± 0.0092 | -0.035 ± 0.0014 | -0.0795 ± 0.012 | -0.0385 ± 0.026 | 0.0065 ± 0.026 | -0.0135 ± 0.018 | 0.0125 ± 0.033 | 0.021 ± 0.028 | 0.015 ± 0.013 | 0.0055 ± 0.0035 | 0.0115 ± 0.018 | 0.016 ± 0.0014 | -0.003 ± 0.04 | 0.0325 ± 0.05 | 0.021 ± 0.045 | -0.0005 ± 0.035 | 0.0085 ± 0.00071 | -0.007 ± 0.013 | 0.001 ± 0.034 | 0.008 ± 0.011 | 0.057 ± 0.055 | 0.0185 ± 0.0064 | 0.0195 ± 0.016 | 0.008 ± 0.045 | 0.0105 ± 0.019 | 0.006 ± 0.011 | 0.023 ± 0.05 | 0.005 ± 0.0085 | 0.002 ± 0.045 | 0.052 ± 0.038
